According to PubChem BioAssay AID1688 (National Center for Advancing Translational Sciences (NCATS), 2009):
The campaign covered roughly 220,000 compounds. About 2,400 (1.1%) were called active. Inconclusive results, whose numbers are uncertain, are shown with a selection of clear calls. Calls come from the whole dose curve; as a rule, active = well fitted inhibition curve with a large enough effect; inconclusive = small, poorly fitted or top-dose-only effect, or effect the other way; inactive = no such curve, though single readings can be large or run the other way. Potencies of inconclusive entries are doubtful fits and often do not repeat.
% is set by controls: 0 for no effect and ±100 for the full control effect; potency is the fitted concentration of half-maximal effect.

Assay: qHTS Multiplex Assay to Identify Dual Action Probes in a Cell Model of Huntington: Aggregate Formation (GFP); note: nearly all actives have a fitted effect of over 60% in size
Settings: PC12 HttQ103-GFP aggregates, Acumen cytometry, 40 h; activity change, negative = inhibition: at 46.1 µM (top of the series) unless noted
In short: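 Steps: seed 1500 PC12 HTTQ103-GFP cells/well; add tebufenozide, 100 nM final; add compound titration; add ATPLite reagent; quantify GFP aggregates by laser scanning cytometry.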
With `COc1ccccc1C(=O)Oc1ccccc1C(=O)Nc1ccccc1` the Potency was “inactive”. For `CCCCNS(=O)(=O)c1ccc(NC(=O)Cc2ccc(OC)cc2)cc1`, the Potency was inconclusive: 11.2 µM [inhibitor, partial curve]. With `O=c1c2ccccc2oc2nc3ccn(Cc4ccncc4)c(=O)c3cc12` the Potency was inconclusive: 1.12 µM [inhibitor, single point]. For `COc1ccc2[nH]cc(S(=O)(=O)c3ccc(F)cc3)c(=O)c2c1`, the Potency was inconclusive: 20 µM [inhibitor, partial curve]. With `Clc1ccc(-c2noc(CN3CCCC3)n2)cc1` the Potency was inconclusive: 0.501 µM [inhibitor, full curve, poor fit]. For `C/C(=C\C(=O)c1sccc1Cl)N(C)C`, the Potency was inconclusive: 1.12 µM [activator, full curve, poor fit]. For `Cc1cccc(/N=C/c2c(O)c3ccccc3oc2=O)n1`, the Potency was inconclusive: 25.1 µM [activator, single point]. In the case of `CCSC(=O)CCCCCCCCCCCO`, the Potency is reported as “inactive”. In the case of `Cn1c(=O)c2cc3c(nc2n(C)c1=O)CC(c1ccccc1)CC3=O` (stereo not given), the activity change, negative = inhibition is reported as inactive: -17.7% [at 9.22 µM]. In the case of `COCCn1c(=O)[nH]c(=O)c2c1nc(-c1ccc(-c3ccc(Cl)cc3[N+](=O)[O-])o1)n2Cc1ccccc1`, the Potency is reported as inconclusive: 12.6 µM [inhibitor, single point]. For `O=C(Cc1ccccc1F)Nc1nc(-c2cccs2)cs1`, the Potency was inconclusive: 28.2 µM [inhibitor, partial curve]. In the case of `Cc1cc(C(=O)COc2cccnc2[N+](=O)[O-])c(C)n1-c1ccccc1`, the Potency is reported as inconclusive: 12.6 µM [activator, partial curve]. In the case of `Fc1ccc(Sc2nc(-c3ccccc3)nnc2C(F)(F)F)cc1`, the Potency is reported as inconclusive: 35.5 µM [inhibitor, single point]. In the case of `Cc1ccc(Nc2nc3ccccc3s2)cc1`, the Potency is reported as “inactive”. In the case of `O=c1ccc(NS(=O)(=O)c2ccccc2)cn1Cc1ccc(Cl)c(Cl)c1`, the Potency is reported as inconclusive: 25.1 µM [inhibitor, single point]. In the case of `O=C(Nc1ccccc1)N1N=C(c2cccs2)CC1c1cccs1` (stereo not given), the Potency is reported as inconclusive: 17.8 µM [inhibitor, single point]. In the case of `CC(C(=O)N/N=C/c1ccc(N(C)C)c(Br)c1)N(c1ccccc1)S(C)(=O)=O` (stereo not given), the Potency is reported as “inactive”. For `CCc1c(C)c2cc(Cl)c(O)c(CN(C)C)c2oc1=O`, the Potency was active: 3.16 µM. For `CC(C)C(=O)Nc1cccc(C(=O)N2CCCCC2C)c1` (stereo not given), the Potency was active: 10 µM. In the case of `CCCCNC(=O)N1CCN(C/C=C/c2ccccc2)CC1`, the Potency is reported as inconclusive: 0.562 µM [activator, partial curve, poor fit].
